# Record: PubChem BioAssay AID1224826 (NIAID, 2016)
# Aim: 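Genes that change LPS-induced Tnf promoter activity in mouse macrophages when knocked down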 (primary screen)
# System: RAW264.7 G9 macrophages from mouse bearing reporters for p65 (GFP) and the Tnf promoter (mCherry)
# Reagent: siRNA pool against mouse genes, 100 nM
# Duration: 16 h of LPS stimulation, after 2 days of siRNA transfection
# Treatment: bacterial lipopolysaccharide (Salmonella minnesota R595), 10 ng/ml
# Measured: 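Imaged Tnf reporter mCherry in nuclei, minus background, normalised per plate to the median and expressed as robust z-scores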
# Direction: Tnf reporter robust z-score: higher = stronger Tnf promoter reporter signal after LPS; Tnf reporter intensity: higher = stronger Tnf promoter reporter signal
# Active means: 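Called active when robust z-score is at most -1.3, matching the median of the Tlr4 knock-down control, or over 3; control wells and wells with under 50 cells never active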
# Meaning of the calls: active = Tnf reporter clearly lowered or raised; inactive = no clear change in Tnf reporter
# The deposit covers about 17,000 reagents; below is a random part of them. In the full data, about 1,110 (6.6%) are marked active. 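Active means lowered or raised reporter signal; replicate intensities are raw and not normalised per plate.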
Gene,Tnf reporter robust z-score,fewer than 50 cells in well,"Tnf reporter intensity, replicate 1","Tnf reporter intensity, replicate 2",call
Sprr2i (GeneID 20763),1.92,enough cells in well,178,152,inactive
C2cd5 (GeneID 74741),0.1,enough cells in well,215,122,inactive
Bmf (GeneID 171543),,fewer than 50 cells per well; well left out of calls,52.2,96.3,inactive
Ubxn10 (GeneID 212190),0.58,enough cells in well,147,103,inactive
Dmwd (GeneID 13401),0.75,enough cells in well,261,265,inactive
Adprh (GeneID 11544),-0.33,enough cells in well,195,154,inactive
Serpinb6a (GeneID 20719),1.1,enough cells in well,396,283,inactive
Mrap (GeneID 77037),1.18,enough cells in well,314,122,inactive
Vmn1r198 (GeneID 171254),0.91,enough cells in well,154,180,inactive
Or5ac20 (GeneID 258997),0.28,enough cells in well,176,147,inactive
Cfap161 (GeneID 75556),-1.2,enough cells in well,131,28.9,inactive
H2-Q2 (GeneID 15013),-0.72,enough cells in well,162,159,inactive
G6pc3 (GeneID 68401),0.85,enough cells in well,339,295,inactive
Stx6 (GeneID 58244),1.44,enough cells in well,176,123,inactive
Lsm10 (GeneID 116748),-1.27,enough cells in well,107,84.6,inactive
Ccdc12 (GeneID 72654),-0.83,enough cells in well,182,38,inactive
Snx2 (GeneID 67804),-0.64,enough cells in well,97.4,71.4,inactive
Doc2b (GeneID 13447),-0.06,enough cells in well,214,92,inactive
Ung (GeneID 22256),-0.16,enough cells in well,232,200,inactive
5330439M10Rik (GeneID 78237),-1.32,enough cells in well,99.6,61.8,active
Prrt3 (GeneID 210673),-1.65,enough cells in well,73.2,75.4,active
Htr3b (GeneID 57014),-0.34,enough cells in well,202,240,inactive
Cd109 (GeneID 235505),0.01,enough cells in well,123,234,inactive
Mrto4 (GeneID 69902),0.4,enough cells in well,281,100,inactive
Sarnp (GeneID 66118),,fewer than 50 cells per well; well left out of calls,238,75.2,inactive
Csad (GeneID 246277),-0.78,enough cells in well,179,143,inactive
Catsperz (GeneID 67077),-0.01,enough cells in well,190,93.7,inactive
Fmo2 (GeneID 55990),1.48,enough cells in well,352,218,inactive
Nxf1 (GeneID 53319),,fewer than 50 cells per well; well left out of calls,108,19.6,inactive
Cdk5r1 (GeneID 12569),0.5,enough cells in well,300,124,inactive
Tia1 (GeneID 21841),0.56,enough cells in well,343,117,inactive
1700067K01Rik (GeneID 73453),1.53,enough cells in well,315,131,inactive
1700084J12Rik (GeneID 73486),-1.44,enough cells in well,115,55.4,active
AW551984 (GeneID 244810),0.5,enough cells in well,185,206,inactive
Trappc6a (GeneID 67091),,fewer than 50 cells per well; well left out of calls,168,119,inactive
Cd3g (GeneID 12502),0.73,enough cells in well,290,275,inactive
Grem1 (GeneID 23892),-0.71,enough cells in well,171,135,inactive
Tcam1 (GeneID 75870),1.55,enough cells in well,177,96.7,inactive
Gm5069 (GeneID 277333),0.38,enough cells in well,216,164,inactive
Agbl2 (GeneID 271813),-0.22,enough cells in well,217,77.8,inactive
Tex13c3 (GeneID 278255),1.07,enough cells in well,354,210,inactive
Denr (GeneID 68184),-0.57,enough cells in well,114,161,inactive
Cd70 (GeneID 21948),-0.58,enough cells in well,253,66.8,inactive
Vmn1r217 (GeneID 171273),-0.87,enough cells in well,85.3,48.9,inactive
Tsc2 (GeneID 22084),0.5,enough cells in well,257,283,inactive
Or5m3b (GeneID 258571),0.55,enough cells in well,200,196,inactive
Gm5094 (GeneID 328839),1.78,enough cells in well,253,268,inactive
Prkar1a (GeneID 19084),-1.22,enough cells in well,78.3,93.7,inactive
Cipc (GeneID 217732),,fewer than 50 cells per well; well left out of calls,197,101,inactive
Krt79 (GeneID 223917),-0.81,enough cells in well,138,164,inactive
Gldc (GeneID 104174),-0.36,enough cells in well,204,170,inactive
Usp22 (GeneID 216825),-0.52,enough cells in well,163,221,inactive
Zfp341 (GeneID 228807),-1.58,enough cells in well,46.1,72.3,active
Aqp5 (GeneID 11830),-0.63,enough cells in well,128,139,inactive
Plagl2 (GeneID 54711),0.15,enough cells in well,287,178,inactive
Pth2 (GeneID 114640),-0.23,enough cells in well,99.1,93.9,inactive
Saa4 (GeneID 20211),-0.96,enough cells in well,97.4,75.8,inactive
Or1o11 (GeneID 258457),-0.87,enough cells in well,147,94.5,inactive

9 entries already listed, sorted by “Tnf reporter intensity, replicate 2”, lowest first.
Gene,Tnf reporter robust z-score,fewer than 50 cells in well,"Tnf reporter intensity, replicate 1","Tnf reporter intensity, replicate 2",call
Zfp341 (GeneID 228807),-1.58,enough cells in well,46.1,72.3,active
Saa4 (GeneID 20211),-0.96,enough cells in well,97.4,75.8,inactive
Pth2 (GeneID 114640),-0.23,enough cells in well,99.1,93.9,inactive
Cipc (GeneID 217732),,fewer than 50 cells per well; well left out of calls,197,101,inactive
Aqp5 (GeneID 11830),-0.63,enough cells in well,128,139,inactive
Krt79 (GeneID 223917),-0.81,enough cells in well,138,164,inactive
Gldc (GeneID 104174),-0.36,enough cells in well,204,170,inactive
Plagl2 (GeneID 54711),0.15,enough cells in well,287,178,inactive
Usp22 (GeneID 216825),-0.52,enough cells in well,163,221,inactive
